Measured values as given in patent publication US20130101605A1.
Results are given in words; binding and its absence hold for the method and conditions named. Some binding calls cover weakened binding; strength is not graded here. Each block holds one binder with its values, some of them ahead of it.

What was measured:
[1] = target: T1, mouse Neogenin expressed on COS-7 cells (mouse), P97798; test: AP fusion binding to Neogenin-expressing cells; details: remark: other sources report otherwise
T1 chain: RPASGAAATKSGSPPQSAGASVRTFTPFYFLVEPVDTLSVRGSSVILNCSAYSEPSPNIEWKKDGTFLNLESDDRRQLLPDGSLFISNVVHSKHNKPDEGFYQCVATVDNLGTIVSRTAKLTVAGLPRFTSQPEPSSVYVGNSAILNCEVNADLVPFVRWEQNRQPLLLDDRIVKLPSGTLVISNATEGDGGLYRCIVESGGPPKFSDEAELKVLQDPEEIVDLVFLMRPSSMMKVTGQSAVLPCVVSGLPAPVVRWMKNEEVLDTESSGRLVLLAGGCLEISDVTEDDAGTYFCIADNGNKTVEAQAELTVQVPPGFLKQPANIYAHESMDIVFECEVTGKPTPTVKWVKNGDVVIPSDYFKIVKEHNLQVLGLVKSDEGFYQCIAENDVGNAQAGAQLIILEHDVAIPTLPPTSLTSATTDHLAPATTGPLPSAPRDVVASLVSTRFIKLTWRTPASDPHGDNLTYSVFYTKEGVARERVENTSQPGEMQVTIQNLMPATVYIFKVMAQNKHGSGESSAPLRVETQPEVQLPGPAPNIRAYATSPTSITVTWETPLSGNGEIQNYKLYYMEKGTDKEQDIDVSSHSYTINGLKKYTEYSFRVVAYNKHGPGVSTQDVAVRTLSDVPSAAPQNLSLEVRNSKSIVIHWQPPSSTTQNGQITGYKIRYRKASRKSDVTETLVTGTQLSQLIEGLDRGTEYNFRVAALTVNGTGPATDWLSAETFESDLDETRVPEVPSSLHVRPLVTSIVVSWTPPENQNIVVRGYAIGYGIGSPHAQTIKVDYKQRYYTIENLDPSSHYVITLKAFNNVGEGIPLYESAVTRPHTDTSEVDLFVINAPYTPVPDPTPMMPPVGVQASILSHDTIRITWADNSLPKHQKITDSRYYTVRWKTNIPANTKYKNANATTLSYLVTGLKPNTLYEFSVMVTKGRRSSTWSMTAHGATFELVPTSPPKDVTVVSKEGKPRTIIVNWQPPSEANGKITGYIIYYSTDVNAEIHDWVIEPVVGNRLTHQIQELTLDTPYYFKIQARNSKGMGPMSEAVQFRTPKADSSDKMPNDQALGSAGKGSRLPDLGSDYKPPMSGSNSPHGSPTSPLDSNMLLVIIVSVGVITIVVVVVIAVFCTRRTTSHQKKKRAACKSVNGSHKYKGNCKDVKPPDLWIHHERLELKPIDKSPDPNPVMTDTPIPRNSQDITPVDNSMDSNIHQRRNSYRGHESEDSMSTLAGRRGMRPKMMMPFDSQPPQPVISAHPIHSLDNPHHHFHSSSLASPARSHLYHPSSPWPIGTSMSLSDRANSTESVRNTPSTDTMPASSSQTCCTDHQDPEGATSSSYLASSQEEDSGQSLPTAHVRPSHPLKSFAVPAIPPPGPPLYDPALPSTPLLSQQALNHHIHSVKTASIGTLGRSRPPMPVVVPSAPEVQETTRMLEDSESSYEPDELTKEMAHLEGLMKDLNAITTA

[2] = target: mouse Neogenin expressed on COS-7 cells (mouse) (UniProt P97798); test: AP fusion binding to Neogenin-expressing cells

binding [1]: binds
B1: Mouse RGM-B-AP, Q7TQ33 49-415 (ligand, UniProt Q7TQ33 49-415, looked up, not shown: large carriers; small tags and cut ends)
chain: GDCQQPTQCRIQKCTTDFVALTAHLNSAADGFDSEFCKALRAYAGCTQRTSKACRGNLVYHSAVLGISDLMSQRNCSKDGPTSSTNPEVTHDPCNYHSHGGVREHGGGDQRPPNYLFCGLFGDPHLRTFKDHFQTCKVEGAWPLIDNNYLSVQVTNVPVVPGSSATATNKVTIIFKAQHECTDQKVYQAVTDDLPAAFVDGTTSGGDGDVKSLHIVEKESGRYVEMHARYIGTTVFVRQLGRYLTLAIRMPEDLAMSYEESQDLQLCVNGCPMSECIDDGQGQVSAILGHSLPHTTSVQAWPGYTLETASTQCHEKMPVKDIYFQSCVFDLLTTGDANFTAAAHSALEDVEALHPRKERWHIFPSSC

binding [2]: binds
B2: Mouse RGM-A-AP (ligand, UniProt Q6PCX7 48-427, looked up, not shown: large carriers; small tags and cut ends)
chain: CKILKCNSEFWSATSSGSHAPASDDVPEFCAALRTYALCTRRTARTCRGDLAYHSAVHGIEDLMSQHNCSKDGPTSQPRVRTLPPAGDSQERSDSPEICHYEKSFHKHSAAPNYTHCGLFGDPHLRTFTDHFQTCKVQGAWPLIDNNYLNVQVTNTPVLPGSAATATSKLTIIFKNFQECVDQKVYQAEMDELPSAFADGSKNGGDKHGANSLKITEKVSGQHVEIQAKYIGTTIVVRQVGRYLTFAVRMPEEVVNAVEDRDSQGLYLCLRGCPLNQQIDFQAFRANAESPRRPAAASPSPVVPETFPYETAVAKCKEKLPVEDLYYQACVFDLLTTGDVNFTLAAYYALEDGKMLHSNKDKLHLFERTRELPGAVAAAA
